Measured values taken from patent US20180320217A1, “METHODS FOR SAMPLING AND MEASURING ORAL LAVAGE PROTEINS” (The Procter & Gamble Company, priority 2017, published 2018).

Tested on: peptides in gingival brush samples
Experiment: Protein and peptide profiling of gingival brush samples (LC-MS/MS), TABLE 23
Assay type: in vivo, human
Conditions: peptide abundance, gingival brush samples; for Mean Cntl Bsl / Mean Cntl Wk3: control regimen; for Mean Cntl Bsl / Mean TrtBsl: baseline; for Mean Cntl Wk3 / Mean TrtWk3: week 3; for Mean TrtBsl / Mean TrtWk3: treatment regimen

Molecule | Mean Cntl Bsl | Mean Cntl Wk3 | Mean TrtBsl | Mean TrtWk3
PERM_HUMAN (protein, UniProt P05164 165-745, looked up) Myeloperoxidase: VTCPEQDKYRTITGMCNNRRSPTLGASNRAFVRWLPAEYEDGFSLPYGWTPGVKRNGFPVALARAVSNEIVRFPTDQLTPDQERSLMFMQWGQLLDHDLDFTPEPAARASFVTGVNCETSCVQQPPCFPLKIPPNDPRIKNQADCIPFFRSCPACPGSNITIRNQINALTSFVDASMVYGSEEPLARNLRNMSNQLGLLAVNQRFQDNGRALLPFDNLHDDPCLLTNRSARIPCFLAGDTRSSEMPELTSMHTLLLREHNRLATELKSLNPRWDGERLYQEARKIVGAMVQIITYRDYLPLVLGPTAMRKYLPTYRSYNDSVDPRIANVFTNAFRYGHTLIQPFMFRLDNRYQPMEPNPRVPLSRVFFASWRVVLEGGIDPILRGLMATPAKLNRQNQIAVDEIRERLFEQVMRIGLDLPALNMQRSRDHGLPGYNAWRRFCGLPQPETVGQLGTVLRNLKLARKLMEQYGTPNNIDIWMGGVSEPLKRKGRVGPLLACIIGTQFRKLRDGDRFWWENEGVFSMQQRQALAQISLPRIICDNTGITTVSKNNIFMSNSYPRDFVNCSTLPALNLASWREAS | 25181.7 | 20462.4 | 28386.8 | 16648.3
MYSM1_HUMAN (protein, UniProt Q5VVJ2 1-828, looked up) Deubiquitinase MYSM1: MAAEEADVDIEGDVVAAAGAQPGSGENTASVLQKDHYLDSSWRTENGLIPWTLDNTISEENRAVIEKMLLEEEYYLSKKSQPEKVWLDQKEDDKKYMKSLQKTAKIMVHSPTKPASYSVKWTIEEKELFEQGLAKFGRRWTKISKLIGSRTVLQVKSYARQYFKNKVKCGLDKETPNQKTGHNLQVKNEDKGTKAWTPSCLRGRADPNLNAVKIEKLSDDEEVDITDEVDELSSQTPQKNSSSDLLLDFPNSKMHETNQGEFITSDSQEALFSKSSRGCLQNEKQDETLSSSEITLWTEKQSNGDKKSIELNDQKFNELIKNCNKHDGRGIIVDARQLPSPEPCEIQKNLNDNEMLFHSCQMVEESHEEEELKPPEQEIEIDRNIIQEEEKQAIPEFFEGRQAKTPERYLKIRNYILDQWEICKPKYLNKTSVRPGLKNCGDVNCIGRIHTYLELIGAINFGCEQAVYNRPQTVDKVRIRDRKDAVEAYQLAQRLQSMRTRRRRVRDPWGNWCDAKDLEGQTFEHLSAEELAKRREEEKGRPVKSLKVPRPTKSSFDPFQLIPCNFFSEEKQEPFQVKVASEALLIMDLHAHVSMAEVIGLLGGRYSEVDKVVEVCAAEPCNSLSTGLQCEMDPVSQTQASETLAVRGFSVIGWYHSHPAFDPNPSLRDIDTQAKYQSYFSRGGAKFIGMIVSPYNRNNPLPYSQITCLVISEEISPDGSYRLPYKFEVQQMLEEPQWGLVFEKTRWIIEKYRLSHSSVPMDKIFRRDSDLTCLQKLLECMRKTLSKVTNCFMAEEFLTEIENLFLSNYKSNQENGVTEENCTKELLM | 46262.7 | 20231.4 | 68195.5 | 17889.7
MDHM_HUMAN (protein, UniProt P40926 25-338, looked up) Malate dehydrogenase, …: AKVAVLGASGGIGQPLSLLLKNSPLVSRLTLYDIAHTPGVAADLSHIETKAAVKGYLGPEQLPDCLKGCDVVVIPAGVPRKPGMTRDDLFNTNATIVATLTAACAQHCPEAMICVIANPVNSTIPITAEVFKKHGVYNPNKIFGVTTLDIVRANTFVAELKGLDPARVNVPVIGGHAGKTIIPLISQCTPKVDFPQDQLTALTGRIQEAGTEVVKAKAGAGSATLSMAYAGARFVFSLVDAMNGKEGVVECSFVKSQETECTYFSTPLLLGKKGIEKNLGIGKVSSFEEKMISDAIPELKASIKKGEDFVKTLK | 2848.8 | 3731.2 | 1778.0 | 4639.0
TRFL_HUMAN (protein, UniProt P02788 20-710, looked up) Lactotransferrin: GRRRSVQWCAVSQPEATKCFQWQRNMRKVRGPPVSCIKRDSPIQCIQAIAENRADAVTLDGGFIYEAGLAPYKLRPVAAEVYGTERQPRTHYYAVAVVKKGGSFQLNELQGLKSCHTGLRRTAGWNVPIGTLRPFLNWTGPPEPIEAAVARFFSASCVPGADKGQFPNLCRLCAGTGENKCAFSSQEPYFSYSGAFKCLRDGAGDVAFIRESTVFEDLSDEAERDEYELLCPDNTRKPVDKFKDCHLARVPSHAVVARSVNGKEDAIWNLLRQAQEKFGKDKSPKFQLFGSPSGQKDLLFKDSAIGFSRVPPRIDSGLYLGSGYFTAIQNLRKSEEEVAARRARVVWCAVGEQELRKCNQWSGLSEGSVTCSSASTTEDCIALVLKGEADAMSLDGGYVYTAGKCGLVPVLAENYKSQQSSDPDPNCVDRPVEGYLAVAVVRRSDTSLTWNSVKGKKSCHTAVDRTAGWNIPMGLLFNQTGSCKFDEYFSQSCAPGSDPRSNLCALCIGDEQGENKCVPNSNERYYGYTGAFRCLAENAGDVAFVKDVTVLQNTDGNNNEAWAKDLKLADFALLCLDGKRKPVTEARSCHLAMAPNHAVVSRMDKVERLKQVLLHQQAKFGRNGSDCPDKFCLFQSETKNLLFNDNTECLARLHGKTTYEKYLGPQYVAGITNLKKCSTSPLLEACEFLRK | 13672.9 | 6956.6 | 15434.5 | 7532.6
MOES_HUMAN (protein, UniProt P26038 2-577, looked up) Moesin: PKTISVRVTTMDAELEFAIQPNTTGKQLFDQVVKTIGLREVWFFGLQYQDTKGFSTWLKLNKKVTAQDVRKESPLLFKFRAKFYPEDVSEELIQDITQRLFFLQVKEGILNDDIYCPPETAVLLASYAVQSKYGDFNKEVHKSGYLAGDKLLPQRVLEQHKLNKDQWEERIQVWHEEHRGMLREDAVLEYLKIAQDLEMYGVNYFSIKNKKGSELWLGVDALGLNIYEQNDRLTPKIGFPWSEIRNISFNDKKFVIKPIDKKAPDFVFYAPRLRINKRILALCMGNHELYMRRRKPDTIEVQQMKAQAREEKHQKQMERAMLENEKKKREMAEKEKEKIEREKEELMERLKQIEEQTKKAQQELEEQTRRALELEQERKRAQSEAEKLAKERQEAEEAKEALLQASRDQKKTQEQLALEMAELTARISQLEMARQKKESEAVEWQQKAQMVQEDLEKTRAELKTAMSTPHVAEPAENEQDEQDENGAEASADLRADAMAKDRSEEERTTEAEKNERVQKHLKALTSELANARDESKKTANDMIHAENMRLGRDKYKTLRQIRQGNTKQRIDEFESM | 2186.3 | 2082.8 | 3594.1 | 2149.5
CAPG_HUMAN (protein, UniProt P40121 1-348, looked up) Macrophage-capping protein: MYTAIPQSGSPFPGSVQDPGLHVWRVEKLKPVPVAQENQGVFFSGDSYLVLHNGPEEVSHLHLWIGQQSSRDEQGACAVLAVHLNTLLGERPVQHREVQGNESDLFMSYFPRGLKYQEGGVESAFHKTSTGAPAAIKKLYQVKGKKNIRATERALNWDSFNTGDCFILDLGQNIFAWCGGKSNILERNKARDLALAIRDSERQGKAQVEIVTDGEEPAEMIQVLGPKPALKEGNPEEDLTADKANAQAAALYKVSDATGQMNLTKVADSSPFALELLISDDCFVLDNGLCGKIYIWKGRKANEKERQAALQVAEGFISRMQYAPNTQVEILPQGHESPIFKQFFKDWK | 25960.8 | 42118.2 | 29622.1 | 46989.5
ILEU_HUMAN (protein, UniProt P30740 1-379, looked up) Leukocyte elastase inhibitor: MEQLSSANTRFALDLFLALSENNPAGNIFISPFSISSAMAMVFLGTRGNTAAQLSKTFHFNTVEEVHSRFQSLNADINKRGASYILKLANRLYGEKTYNFLPEFLVSTQKTYGADLASVDFQHASEDARKTINQWVKGQTEGKIPELLASGMVDNMTKLVLVNAIYFKGNWKDKFMKEATTNAPFRLNKKDRKTVKMMYQKKKFAYGYIEDLKCRVLELPYQGEELSMVILLPDDIEDESTGLKKIEEQLTLEKLHEWTKPENLDFIEVNVSLPRFKLEESYTLNSDLARLGVQDLFNSSKADLSGMSGARDIFISKIVHKSFVEVNEEGTEAAAATAGIATFCMLMPEENFTADHPFLFFIRHNSSGSILFLGRFSSP | 8769.7 | 8901.6 | 9351.4 | 19761.2
AL9A1_HUMAN (protein, UniProt P49189 1-494, looked up) 4-trimethylaminobutyraldehyde …: MSTGTFVVSQPLNYRGGARVEPADASGTEKAFEPATGRVIATFTCSGEKEVNLAVQNAKAAFKIWSQKSGMERCRILLEAARIIREREDEIATMECINNGKSIFEARLDIDISWQCLEYYAGLAASMAGEHIQLPGGSFGYTRREPLGVCVGIGAWNYPFQIASWKSAPALACGNAMVFKPSPFTPVSALLLAEIYSEAGVPPGLFNVVQGGAATGQFLCQHPDVAKVSFTGSVPTGMKIMEMSAKGIKPVTLELGGKSPLIIFSDCDMNNAVKGALMANFLTQGQVCCNGTRVFVQKEILDKFTEEVVKQTQRIKIGDPLLEDTRMGPLINRPHLERVLGFVKVAKEQGAKVLCGGDIYVPEDPKLKDGYYMRPCVLTNCRDDMTCVKEEIFGPVMSILSFDTEAEVLERANDTTFGLAAGVFTRDIQRAHRVVAELQAGTCFINNYNVSPVELPFGGYKKSGFGRENGRVTIEYYSQLKTVCVEMGDVESAF | 4689.8 | 8624.4 | 5984.7 | 8802.5
MIF_HUMAN (protein, UniProt P14174 2-115, looked up) Macrophage migration …: PMFIVNTNVPRASVPDGFLSELTQQLAQATGKPPQYIAVHVVPDQLMAFGGSSEPCALCSLHSIGKIGGAQNRSYSKLLCGLLAERLRISPDRVYINYYDMNAANVGWNNSTFA | 8319.5 | 11969.6 | 5332.4 | 10109.7
INVO_HUMAN (protein, UniProt P07476 1-585, looked up) Involucrin: MSQQHTLPVTLSPALSQELLKTVPPPVNTHQEQMKQPTPLPPPCQKVPVELPVEVPSKQEEKHMTAVKGLPEQECEQQQKEPQEQELQQQHWEQHEEYQKAENPEQQLKQEKTQRDQQLNKQLEEEKKLLDQQLDQELVKRDEQLGMKKEQLLELPEQQEGHLKHLEQQEGQLKHPEQQEGQLELPEQQEGQLELPEQQEGQLELPEQQEGQLELPEQQEGQLELPEQQEGQLELPQQQEGQLELSEQQEGQLELSEQQEGQLKHLEHQEGQLEVPEEQMGQLKYLEQQEGQLKHLDQQEKQPELPEQQMGQLKHLEQQEGQPKHLEQQEGQLEQLEEQEGQLKHLEQQEGQLEHLEHQEGQLGLPEQQVLQLKQLEKQQGQPKHLEEEEGQLKHLVQQEGQLKHLVQQEGQLEQQERQVEHLEQQVGQLKHLEEQEGQLKHLEQQQGQLEVPEQQVGQPKNLEQEEKQLELPEQQEGQVKHLEKQEAQLELPEQQVGQPKHLEQQEKHLEHPEQQDGQLKHLEQQEGQLKDLEQQKGQLEQPVFAPAPGQVQDIQPALPTKGEVLLPVEHQQQKQEVQWPPKHK | 58457.2 |  | 52897.6 | 80754.6
